Article PMC8141524

Protein sequences, listed by entry. Tags and fused reporters are not part of them. Lines headed by an entry give the natural chain unless they say otherwise; changes in a name come on top.
UniProt O09106: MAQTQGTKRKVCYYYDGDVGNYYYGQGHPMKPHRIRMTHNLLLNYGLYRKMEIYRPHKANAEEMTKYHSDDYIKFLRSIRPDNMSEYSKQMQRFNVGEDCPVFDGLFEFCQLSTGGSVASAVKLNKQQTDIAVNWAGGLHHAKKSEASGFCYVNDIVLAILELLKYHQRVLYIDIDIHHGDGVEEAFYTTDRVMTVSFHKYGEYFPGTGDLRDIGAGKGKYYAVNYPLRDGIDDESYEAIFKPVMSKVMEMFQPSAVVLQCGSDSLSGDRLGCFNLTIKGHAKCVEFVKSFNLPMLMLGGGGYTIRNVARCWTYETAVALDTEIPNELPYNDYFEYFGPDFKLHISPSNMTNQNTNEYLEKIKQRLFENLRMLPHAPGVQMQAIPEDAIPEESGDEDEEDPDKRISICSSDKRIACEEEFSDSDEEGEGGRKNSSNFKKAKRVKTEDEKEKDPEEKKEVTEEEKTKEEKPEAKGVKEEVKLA
UniProt Q05516: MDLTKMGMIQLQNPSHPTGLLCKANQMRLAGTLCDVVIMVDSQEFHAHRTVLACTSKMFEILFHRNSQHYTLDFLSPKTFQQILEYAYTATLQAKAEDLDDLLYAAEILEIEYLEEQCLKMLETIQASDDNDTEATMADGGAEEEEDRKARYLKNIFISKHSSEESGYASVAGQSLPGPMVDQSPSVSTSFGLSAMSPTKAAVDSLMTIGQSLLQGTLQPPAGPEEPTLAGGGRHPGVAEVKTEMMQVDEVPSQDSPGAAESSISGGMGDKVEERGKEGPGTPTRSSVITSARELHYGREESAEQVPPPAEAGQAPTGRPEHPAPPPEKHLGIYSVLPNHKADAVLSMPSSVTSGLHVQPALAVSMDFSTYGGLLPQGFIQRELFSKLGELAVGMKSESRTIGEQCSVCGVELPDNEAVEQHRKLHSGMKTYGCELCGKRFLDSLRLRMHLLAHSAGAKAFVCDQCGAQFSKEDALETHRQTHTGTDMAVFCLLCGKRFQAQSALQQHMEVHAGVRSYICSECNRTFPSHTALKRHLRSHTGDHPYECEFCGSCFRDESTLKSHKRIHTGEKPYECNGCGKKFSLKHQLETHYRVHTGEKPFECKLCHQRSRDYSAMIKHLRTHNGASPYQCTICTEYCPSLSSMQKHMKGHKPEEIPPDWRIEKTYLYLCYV

Key:
[1] = biological target: GST-tagged mouse HDAC1 (mouse) (UniProt O09106); test: pull-down; 200 nM His6-tagged BTB domain with equimolar GST-tagged protein, 50 mM HEPES pH 8.0, 150 mM NaCl, 0.1% IGEPAL-CA630, 2 mM EDTA, 4 °C; glutathione sepharose 4B; immunoblot anti-His; both purified
[2] = biological target: T1, GST-SMRT(1383-1467), residues 1383-1467 of mouse SMRT (mouse) (UniProt Q9WU42); test: as above
T1 sequence: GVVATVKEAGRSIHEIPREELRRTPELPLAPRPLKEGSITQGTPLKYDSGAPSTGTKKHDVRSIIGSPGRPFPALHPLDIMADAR

- binding [1]: binds
- binding [2]: binds
Substance: His6-tagged BTB domain of PLZF (from UniProt Q05516) (domain or fragment)

Results are given in words; binding and its absence hold for the method and conditions named. Binding can be weak; no strength is given. For some assays here: Tags and fused reporters may be left off the sequences shown.
